# Assay results published in PubChem BioAssay AID196 (DTP/NCI, 2004).
# The list is a part of this screen's results and no random one: it is rich in T/C values a quarter to a half above the control, in often repeated tests (any T/C) and in doses without a T/C. Further doses and runs are listed elsewhere. T/C is the treated group as % of the vehicle group. Some doses have a count of surviving animals in place of a T/C: the source holds a T/C of zero for them, seemingly a mark for toxic or unscored doses. Some survivor counts are full or nearly so, which does not show that the dose was tolerated: the source hardly ever lists a survival T/C far under the control, and the zero likely stands for such cases as well. Survivors were counted at the toxicity check, usually on the fifth day, unless a day is given; later deaths do not show. Schedule codes are those of the source, taken here to give the interval after Q, in days (D) or hours (H), and the number of doses after X. Some structures stand for samples that the source files as different forms (salt, stereo form or complex); doses refer to the form tested. Marks such as (2×) give the number of equal values in this list. Some entries were tested several times; the results are listed from low to high. For survival time, this PubChem deposit counts one and a half times the control or more as active, and values a quarter to a half above the control carry no call in these data; other NCI protocols may use other cut-offs. Some T/C values are followed by the survivors on the day toxicity was checked, most often the fifth; where none is given, no animal had died by that day. *1 amine or outer side, *2 acyl side, *3 side chain or, on linkers, in order; H or OH if unused. Where a SMILES comes first, the peptide text is derived from it. Bridges are numbered along the chain shown (N, C = ends). Roman numbers before positions name the chains, in order. [ ]: non-standard residue; d: D form. Actinocin(9to1) = Cc1c2oc3c(C)ccc(C(=O)[*:1])c3nc-2c(C(=O)[*:2])c(N)c1=O; aThr = C[C@H](O)[C@H](N)C(=O)O; NMeV = CN[C@H](C(=O)O)C(C)C; Sar = CNCC(=O)O
# Test system: BDF1 mice, intracerebral B16 melanoma, median survival T/C
# Test: NCI In Vivo Anticancer Drug Screen. Data for tumor model B16 Melanoma (intracerebral) in B6D2F1 (BDF1) mice
# Conditions: T/C endpoint: median survival time, higher T/C = longer survival
# Description: The antitumor activity of compounds was measured in mice bearing transplantable tumors. Survival or tumor size were measured and the results are expressed as the measurement made in the treated group (T) divided by the measurement made in the vehicle treated control group (C). The tumor model used in this assay is B16 Melanoma (intracerebral) in B6D2F1 (BDF1) mice
# [1] = dose: 8.0 mg/kg/injection, schedule: Q01DX009 (ip), vehicle: saline
# [2] = dose: 32.0 mg/kg/injection, schedule: Q01DX009 (ip), vehicle: saline
# [3] = dose: 32.0 mg/kg/injection, schedule: Q01DX005 (ip), vehicle: saline
# [4] = dose: 50.0 mg/kg/injection, schedule: Q01DX009 (ip), vehicle: saline
# [5] = dose: 50.0 mg/kg/injection, schedule: Q01DX009 (ip), vehicle: saline with Tween-80
# [6] = dose: 200.0 mg/kg/injection, schedule: Q01DX009 (ip), vehicle: saline with Tween-80
# [7] = dose: 400.0 mg/kg/injection, schedule: Q01DX009 (ip), vehicle: saline with Tween-80
# [8] = dose: 256.0 mg/kg/injection, schedule: Q01DX005 (ip), vehicle: saline with Tween-80
# [9] = dose: 128.0 mg/kg/injection, schedule: Q01DX005 (ip), vehicle: saline with Tween-80
# [10] = dose: 100.0 mg/kg/injection, schedule: Q01DX009 (ip), vehicle: saline with Tween-80
structure (smiles),measurement,setting,value
O=C1c2c(O)ccc(O)c2C(=O)c2c(NCCNCCO)ccc(NCCNCCO)c21,T/C,"dose: 1.0 mg/kg/injection, schedule: Q01DX005 (ip), vehicle: saline with Tween-80, evaluated on day 30",109 and 112 % of control [9 of 10 alive]
same,T/C,"dose: 1.0 mg/kg/injection, schedule: Q01DX005 (ip), vehicle: saline with Tween-80, evaluated on day 60",101 % of control
same,survivor count,"dose: 1.0 mg/kg/injection, schedule: Q01DX005 (ip), vehicle: saline with Tween-80",6 of 10
same,T/C,"dose: 2.0 mg/kg/injection, schedule: Q01DX005 (ip), vehicle: saline with Tween-80, evaluated on day 30",109 and 118 % of control [8 of 10 alive]
same,T/C,"dose: 2.0 mg/kg/injection, schedule: Q01DX005 (ip), vehicle: saline with Tween-80, evaluated on day 60",104 % of control [9 of 10 alive]
same,survivor count,"dose: 2.0 mg/kg/injection, schedule: Q01DX005 (ip), vehicle: saline with Tween-80",7 of 10
same,T/C,"dose: 4.0 mg/kg/injection, schedule: Q01DX005 (ip), vehicle: saline with Tween-80, evaluated on day 30",92 [7 of 10 alive] and 108 % of control [9 of 10 alive]
same,T/C,"dose: 4.0 mg/kg/injection, schedule: Q01DX005 (ip), vehicle: saline with Tween-80, evaluated on day 60",89 % of control [9 of 10 alive]
same,survivor count,"dose: 4.0 mg/kg/injection, schedule: Q01DX005 (ip), vehicle: saline with Tween-80",8 of 10
same,survivor count,"dose: 4.0 mg/kg/injection, schedule: Q01DX009 (ip), vehicle: saline",10 of 10
same,survivor count,[1],10 of 10
same,survivor count,"dose: 16.0 mg/kg/injection, schedule: Q01DX009 (ip), vehicle: saline",10 of 10
same,survivor count,[2],0 of 10
same,survivor count,"dose: 64.0 mg/kg/injection, schedule: Q01DX009 (ip), vehicle: saline",2 of 10
CCN(CC)c1ccc2cc3ccc(=[N+](CC)CC)cc-3oc2c1,survivor count,"dose: 16.0 mg/kg/injection, schedule: Q01DX005 (ip), vehicle: saline",0 of 10
same,survivor count,"dose: 16.0 mg/kg/injection, schedule: Q01DX005 (ip), vehicle: suspension in saline",6 of 10
same,survivor count,[3],0 of 10
same,survivor count,"dose: 32.0 mg/kg/injection, schedule: Q01DX005 (ip), vehicle: suspension in saline",0 of 10
COc1ccc2c(c1O)-c1cccc3c1[C@@H](C2)N(CCCl)CC3,survivor count,[3],8 of 10
same,survivor count,"dose: 64.0 mg/kg/injection, schedule: Q01DX005 (ip), vehicle: saline",0 of 10
same,survivor count,"dose: 128.0 mg/kg/injection, schedule: Q01DX005 (ip), vehicle: saline",0 of 10
CC1CCC(NC(=O)N(CCCl)N=O)CC1 (centres undefined),survivor count,"dose: 8.0 mg/kg/injection, schedule: Q01DX009 (ip), vehicle: Klucel (hydroxypropylcellulose) (HPC)",10 of 10
same,survivor count,"dose: 16.0 mg/kg/injection, schedule: Q01DX009 (ip), vehicle: Klucel (hydroxypropylcellulose) (HPC)",9 of 10
same,survivor count,"dose: 18.0 mg/kg/injection, schedule: Q01DX001 (ip), vehicle: other",10 of 10
same,T/C,"dose: 30.0 mg/kg/injection, schedule: Q01DX001 (ip), vehicle: other",137 % of control
Cc1[nH]c(=O)[nH]c(=O)c1N(CCF)CCCl,survivor count,"dose: 64.0 mg/kg/injection, schedule: Q01DX009 (ip), vehicle: water",0 of 6
COc1cccc2c1C(=O)c1c(O)c3c(c(O)c1C2=O)C[C@@](O)(/C(C)=N/NC(=O)c1ccccc1)C[C@@H]3OC1CC(N)C(O)C(C)O1 (some centres undefined),survivor count,"dose: 1.0 mg/kg/injection, schedule: Q01DX009 (ip), vehicle: saline",10 of 10
same,survivor count,"dose: 8.0 mg/kg/injection, schedule: Q01DX009 (ip), vehicle: saline with Tween-80",10 of 10
same,survivor count,[1],10 of 10
same,survivor count,"dose: 16.0 mg/kg/injection, schedule: Q01DX009 (ip), vehicle: saline with Tween-80",10 of 10
CN(N=O)C(N)=O,T/C,"dose: 3.12 mg/kg/injection, schedule: Q01DX009 (ip), vehicle: saline",125 % of control
same,T/C,"dose: 12.5 mg/kg/injection, schedule: Q01DX009 (ip), vehicle: saline",135 % of control [9 of 10 alive]
same,survivor count,[4],10 of 10
COc1ccc2c(c1OC(C)=O)-c1cc(O)cc3c1C(C2)N(C(=O)CN(CCCl)CCCl)CC3 (centres undefined),survivor count,"dose: 25.0 mg/kg/injection, schedule: Q01DX009 (ip), vehicle: saline with Tween-80",10 of 10
same,survivor count,"dose: 32.0 mg/kg/injection, schedule: Q01DX005 (ip), vehicle: DMSO",8 of 10
same,survivor count,[5],7 of 10
same,survivor count,"dose: 64.0 mg/kg/injection, schedule: Q01DX005 (ip), vehicle: DMSO",7 of 10
same,survivor count,"dose: 128.0 mg/kg/injection, schedule: Q01DX005 (ip), vehicle: DMSO",3 of 10
Cc1cn(C2CC(O)C(CO)O2)c(=O)[nH]c1=O (centres undefined),T/C,[6],129 % of control [9 of 10 alive]
same,T/C,[7],129 % of control [9 of 10 alive]
CN(C)/N=N/c1[nH]ncc1C(N)=O,T/C,"dose: 32.0 mg/kg/injection, schedule: Q01DX005 (ip), vehicle: saline with Tween-80",132 % of control [9 of 10 alive]
same,survivor count,[8],10 of 10
same,survivor count,"dose: 512.0 mg/kg/injection, schedule: Q01DX005 (ip), vehicle: saline with Tween-80",0 of 10
CCC(C)N(C)/N=N/c1nc[nH]c1C(N)=O (centres undefined),survivor count,[8],9 of 10
CCCCN(C)N=Nc1c(C(N)=O)n[nH]c1C,T/C,"dose: 8.0 mg/kg/injection, schedule: Q01DX005 (ip), vehicle: saline with Tween-80",143 % of control
same,T/C,"dose: 16.0 mg/kg/injection, schedule: Q01DX005 (ip), vehicle: saline with Tween-80",140 % of control
same,survivor count,"dose: 64.0 mg/kg/injection, schedule: Q01DX005 (ip), vehicle: saline with Tween-80",10 of 10
same,survivor count,[9],9 of 10
CN(C)/N=N/c1nc[nH]c1C(N)=O,T/C,[4],125 % of control [9 of 10 alive]
same,T/C,"dose: 100.0 mg/kg/injection, schedule: Q01DX009 (ip), vehicle: saline",125 % of control
same,survivor count,[7],10 of 10
Cc1c(N)nc([C@H](CC(N)=O)NC[C@H](N)C(N)=O)nc1C(=O)N[C@H](C(=O)N[C@H](C)[C@@H](O)[C@H](C)C(=O)N[C@H](C(=O)NCCc1nc(-c2nc(C(=O)NCCC[S+](C)C)cs2)cs1)[C@@H](C)O)C(OC1OC(CO)C(O)C(O)C1OC1OC(CO)C(O)C(OC(N)=O)C1O)c1cnc[nH]1 (some centres undefined),survivor count,[2],8 of 10
CCCCN(C)N=Nc1ccc([N+](=O)[O-])cc1C(N)=O,T/C,[9],132 % of control
"Cc1c2oc3c(C)ccc(C(=O)N[C@@H]4C(=O)N[C@H](C(C)C)C(=O)N5CCC[C@H]5C(=O)N(C)CC(=O)N(C)[C@@H](C(C)C)C(=O)O[C@H]4C)c3nc-2c(C(=O)N[C@@H]2C(=O)N[C@H](C(C)C)C(=O)N3CCC[C@H]3C(=O)N(C)CC(=O)N(C)[C@@H](C(C)C)C(=O)O[C@H]2C)c(N)c1=O (I: [aThr][dV]P[Sar][NMeV] / II: [aThr][dV]P[Sar][NMeV]; ester I:1-I:C, II:1-II:C; linker I:N-II:N via Actinocin(9to1))",survivor count,"dose: 0.1 mg/kg/injection, schedule: Q01DX009 (ip), vehicle: water",8 of 10
same,survivor count,"dose: 0.2 mg/kg/injection, schedule: Q01DX009 (ip), vehicle: water",10 of 10
CN(CO)c1nc(N(C)CO)nc(N(C)CO)n1,survivor count,[5],5 of 10
same,survivor count,[10],3 of 10
same,survivor count,"dose: 200.0 mg/kg/injection, schedule: Q01DX009 (ip), vehicle: Klucel (hydroxypropylcellulose) (HPC)",2 of 10 and 6 of 10
same,survivor count,[6],10 of 10
same,survivor count,"dose: 400.0 mg/kg/injection, schedule: Q01DX009 (ip), vehicle: Klucel (hydroxypropylcellulose) (HPC)",0 of 10 (2×)
same,survivor count,[7],8 of 10
same,survivor count,"dose: 800.0 mg/kg/injection, schedule: Q01DX009 (ip), vehicle: saline with Tween-80",1 of 10
CN=S(=O)(OCCCCCOS(=O)(=NC)c1ccccc1)c1ccccc1 (centres undefined),survivor count,[5],10 of 10
same,survivor count,[10],0 of 10
